Measured values reported in publication PMC7804408.
These are yes or no findings as the source states them, for the method shown.

Protein sequences, listed by entry. Tags and fused reporters are not part of them. Residues count along the entry.
UniProt P0A850: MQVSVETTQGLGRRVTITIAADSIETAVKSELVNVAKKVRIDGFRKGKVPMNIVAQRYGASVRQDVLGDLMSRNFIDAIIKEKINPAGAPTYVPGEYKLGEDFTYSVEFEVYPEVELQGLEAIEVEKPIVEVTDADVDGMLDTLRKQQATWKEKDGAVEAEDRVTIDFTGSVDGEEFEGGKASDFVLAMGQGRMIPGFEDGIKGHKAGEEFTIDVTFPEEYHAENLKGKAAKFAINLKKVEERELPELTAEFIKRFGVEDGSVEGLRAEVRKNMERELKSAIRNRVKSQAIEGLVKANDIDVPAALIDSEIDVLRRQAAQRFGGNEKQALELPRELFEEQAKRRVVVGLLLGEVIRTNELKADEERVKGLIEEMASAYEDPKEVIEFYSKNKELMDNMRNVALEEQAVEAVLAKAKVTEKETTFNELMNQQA
UniProt P0A6G7, residues 15-207: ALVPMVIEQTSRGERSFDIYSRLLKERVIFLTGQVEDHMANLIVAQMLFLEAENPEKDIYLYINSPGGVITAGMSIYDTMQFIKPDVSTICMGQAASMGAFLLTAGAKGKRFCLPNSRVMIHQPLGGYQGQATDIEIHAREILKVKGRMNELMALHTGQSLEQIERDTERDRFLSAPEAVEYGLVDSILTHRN

Target: trigger factor (TF) (E. coli) (UniProt P0A850)
Experiment: SPR; TF immobilised on a CM5 chip by amine coupling, analytes injected at 20 μL/min for 90 s; Biacore X, 22 °C; 10 mM HEPES pH 7.5, 150 mM NaCl, 3 mM EDTA, 0.005% P20; steady-state response against concentration, one-site Langmuir model; apparent Kd for ClpX; both purified

“ClpP (from UniProt P0A6G7 15-207) (enzyme)” was tested, and the binding was “no binding”.
